The data set has as its system Trypanosoma cruzi (Tulahuen C2C4 strain). Description: American trypanosome protozoa growth inhibition screening test. In kind it is cell-based. The note with it: chemotherapy index = EC50 rat L6 cells / EC50 American trypanosome protozoa. As for the experimental part:
In the present example, amastigote and trypomastigote infected with rat L6 cells of protozoa of Trypanosoma cruzi (Tulahuen C2C4 strain) were used. As medium used in the test, RPMI 1640 medium containing L6 cells was supplemented so that L-glutamine (200 mM) becomes 1%, fetal bovine serum becomes 10%, which was cultured under CO2 concentration 5%, at 37° C.
The compounds of the present invention to be used in the test and the positive target agent (benznidazole) were dissolved in DMSO to make a test solution of a predetermined concentration. A medium containing 5×10^3 protozoa was added to wells of a 96-well culture plate, and pre-cultured for 48 hours. After replacing the medium, test solution containing drug of a predetermined concentration or a drug-free DMSO was added. Test solutions were taken by duplicates. After culturing the culture plate in an incubator for 96 hours, growth inhibition activity was tested. Test was conducted as follows.
50 μL of CPRG/Nonidet was added to each well, and allowed to rest for 2 to 6 hours. Next, the culture plate was placed on a fluorescent micro-plate reader, and the absorbance was measured at 540 nm. Growth inhibition rate was calculated with the following formula based on the protozoan infection rate which was obtained by calculating trypanosome infection rate of the test solution added group and control group, to obtain a 50% growth inhibition concentration (EC50). Growth inhibition rate (%)={1−(b−a)/(c−a)}×100 a: early infection rate b: infection rate when test solution was added c: infection rate of the control

As for `CCn1c(=Cc2sc3c4ccccc4ccc3[n+]2CC)sc(=CC=C2SCCN2C)c1=O` [A-9], the Selective toxicity was determined as 2.0.

`CCn1c(=Cc2cc[n+](CC)c3ccccc23)sc(=CC=C2C=Cc3ccccc3N2C)c1=O` [A-14] yielded a Selective toxicity of 7.6.

`CCn1c(=Cc2oc3ccccc3[n+]2CC)sc(=CC=C2N(C)c3ccccc3C2(C)C)c1=O` [A-8] gave a Selective toxicity of 1.8.
